{"source": "paper PMC12040169", "about": "(PLOS Biology, 2025)", "note": "The list shows a part of the results.", "data": [{"system": "T1, CTL2-GFP (C. trachomatis L2/434/Bu, GFP-expressing)", "T1 construct": "L2/434/Bu, GFP-expressing", "parameters": "species or system HeLa; Intracellular C. trachomatis growth in HeLa cells, bulk GFP fluorescence relative to DMSO", "conditions": "bulk GFP, single well; 28.5 h, 10 µM; inhibitor", "units": {"% of control remaining": "%"}, "values": [{"smiles": "OC1(Cn2cnc3ccccc32)CCN(Cc2ccccc2F)CC1", "note": "[CBK284662]", "% of control remaining": 150.354}, {"smiles": "O=S(=O)(Nc1ccc(C(O)(C(F)(F)F)C(F)(F)F)cc1)c1ccc(N2CCOCC2)nc1", "note": "[CBK062100]", "% of control remaining": 85.8377}, {"smiles": "Cc1cc(C)c2c(O)nc(SCC(=O)c3ccc(F)c(C)c3)nc2n1", "note": "[CBK266087]", "% of control remaining": 194.006}, {"smiles": "CCNC(=O)c1cc2c(=O)n3cc(C)ccc3nc2n(Cc2ccco2)c1=N", "note": "[CBK265312]", "% of control remaining": 100}, {"smiles": "COC(=O)c1csc(-c2ccc(Cl)cc2Cl)n1", "note": "[CBK067776]", "% of control remaining": 105.328}, {"smiles": "O=C(Nc1cccc2cc[nH]c12)c1cc(F)cc(Cl)c1", "note": "[CBK160075]", "% of control remaining": 87.5988}, {"smiles": "O=C(COc1ccc2ccccc2c1)Nc1ccc(S(=O)(=O)N2CCc3ccccc32)cc1", "note": "[CBK263802]", "% of control remaining": 100}, {"smiles": "Clc1ccc(OCc2nnn[nH]2)c(C2CCCCC2)c1", "note": "[CBK270035]", "% of control remaining": 111.192}, {"smiles": "O=C(CC1SC(=O)NC1=O)Nc1ccccc1O", "note": "(stereo not shown) [CBK057932]", "% of control remaining": 100}, {"smiles": "CC(C)NC(=O)C1CN(Cc2ccccc2)CC12CCc1ccccc1C2NC(=O)CN", "note": "(stereo not shown) [CBK283093]", "% of control remaining": 178.202}, {"smiles": "O=C(C1CCC1)N1CCCC1c1nnc(-c2ccsc2)o1", "note": "(stereo not shown) [CBK283365]", "% of control remaining": 145.017}, {"smiles": "Cc1nc2c(c(=O)[nH]1)CN(Cc1cccc(Oc3ccccc3)c1)CC2", "note": "[CBK283951]", "% of control remaining": 132.734}, {"smiles": "COCC(C)NC(=O)c1cc2c(C)cc(C)cc2[nH]1", "note": "(stereo not shown) [CBK057591]", "% of control remaining": 149.942}, {"smiles": "NC(=O)c1c(NC(=O)c2ccc(COc3ccc4ccccc4c3)o2)sc2c1CCCC2", "note": "[CBK265871]", "% of control remaining": 100}, {"smiles": "CC1CCCN(Cc2c(C3CCNCC3)[nH]c3ncccc23)C1C", "note": "(stereo not shown) [CBK285084]", "% of control remaining": 147.451}, {"smiles": "CN1CCN(CCCNC(=O)c2ccc(-c3ccc(C(=O)N(C)C)cc3)nc2)CC1", "note": "[CBK158343]", "% of control remaining": 98.8704}, {"smiles": "Cc1nc(CNCc2c(C)nn(C)c2N2CCOCC2)cs1", "note": "[CBK305753]", "% of control remaining": 99.3259}, {"smiles": "CCCc1[nH]n(CC(=O)OCC)c(=O)c1Cc1c(Cl)cccc1Cl", "note": "[CBK104764]", "% of control remaining": 101.524}, {"smiles": "O=C(Nc1cccnc1)c1cc(-c2ccc(Cl)cc2)on1", "note": "[CBK116555]", "% of control remaining": 103.324}, {"smiles": "CC(C)N(CC(=O)N(c1ccccc1)c1ccccc1)C(C)C", "note": "[CBK013303C]", "% of control remaining": 114.337}, {"smiles": "Nc1ncc(-c2cccc(O)c2)nc1NCc1ccco1", "note": "[CBK063675]", "% of control remaining": 128.459}, {"smiles": "COc1ccc(CN2C(=O)CO[C@H]3CN(c4nccc(C)n4)C[C@H]32)cc1", "note": "[CBK289056]", "% of control remaining": 118.875}, {"smiles": "c1cnc(Oc2ccc(CN3CCCC(c4cn[nH]c4)C3)cc2)cn1", "note": "(stereo not shown) [CBK306416]", "% of control remaining": 89.6057}, {"smiles": "Cc1ccc2nc(NCc3ccco3)c(/C=N/Cc3ccco3)c(=O)n2c1", "note": "[CBK220353]", "% of control remaining": 118.527}, {"smiles": "O=C(Nc1cc2ccccc2c(Br)n1)Nc1ccc(F)cc1C(F)(F)F", "note": "[CBK063278]", "% of control remaining": 103.342}, {"smiles": "CCOC(=O)C1=C(C)NC(=S)NC1c1ccc(O)c(OCC)c1[N+](=O)[O-]", "note": "(stereo not shown) [CBK265624]", "% of control remaining": 132.117}, {"smiles": "CCc1nccn1CCC(=O)Nc1ccc2c(c1)CCN2C(C)=O", "note": "[CBK281446]", "% of control remaining": 124.55}, {"smiles": "C=CCN1C(=O)/C(=C2/Sc3ccc(OC)cc3N2C)S/C1=N\\c1cc(C#N)ccc1NCC", "note": "[CBK262431]", "% of control remaining": 100}, {"smiles": "CS(=O)(=O)Nc1ncc(Br)cc1C(=O)Nc1ccc(C(F)(F)F)cc1", "note": "[CBK076485]", "% of control remaining": 100.945}, {"smiles": "CCC1CCCCN1C(=O)CCc1c(C)nc(-c2ccccc2)[nH]c1=O", "note": "(stereo not shown) [CBK305608]", "% of control remaining": 86.338}, {"smiles": "COc1ncc(-c2cccc(N(C)CCN(C)C)n2)c(OC)n1", "note": "[CBK037599]", "% of control remaining": 86.1728}, {"smiles": "CSCCCNC(=O)N1CCN(C2CCN(C)CC2)CC1", "note": "[CBK155882]", "% of control remaining": 81.55}, {"smiles": "CSCCN1CCN(c2nccnc2OCc2cccnc2)CC1", "note": "[CBK083146]", "% of control remaining": 127.051}, {"smiles": "N#Cc1cnn2c(C(F)(F)F)cc(C(F)(F)F)nc12", "note": "[CBK014064]", "% of control remaining": 95.4792}, {"smiles": "CCCS(=O)(=O)NC1CC(C)(C)Cc2c1cnn2-c1ccc(C)cc1", "note": "(stereo not shown) [CBK307531]", "% of control remaining": 138.026}, {"smiles": "COc1ccc(CN(C(=O)CCc2c(C)[nH]c(=O)c(C#N)c2C)C2CC2)cc1", "note": "[CBK295667]", "% of control remaining": 119.365}, {"smiles": "CN(C(=O)CCc1nc2sc3c(c2c(=O)[nH]1)CCCC3)C1CCCCC1", "note": "[CBK306075]", "% of control remaining": 118.538}, {"smiles": "CN(C)C(=O)c1cccc(-c2cnc3[nH]c(=O)n(Cc4ccc(Cl)cc4)c3n2)c1", "note": "[CBK064553]", "% of control remaining": 204.822}, {"smiles": "Cc1ccc(NC(=O)CSc2nnc(C(O)c3ccccc3)n2-c2ccccc2)c(Br)c1", "note": "(stereo not shown) [CBK267421]", "% of control remaining": 113.339}, {"smiles": "Cc1ccc(-c2csc(NC(=O)CN3C(=O)CCC3=O)n2)cc1", "note": "[CBK287346]", "% of control remaining": 134.54}]}]}
